According to publication PMC10290057:
These are yes or no findings as the source states them, for the method shown. In cells and extracts the contact can be indirect. These calls come from enrichment with a bait or labelling near it, and not all partners need be listed. Values belong to the molecule of their own block, whether it stands above or below them.

Sequences of proteins named here, by UniProt entry; tags and fusion partners are left off.
UniProt P11387: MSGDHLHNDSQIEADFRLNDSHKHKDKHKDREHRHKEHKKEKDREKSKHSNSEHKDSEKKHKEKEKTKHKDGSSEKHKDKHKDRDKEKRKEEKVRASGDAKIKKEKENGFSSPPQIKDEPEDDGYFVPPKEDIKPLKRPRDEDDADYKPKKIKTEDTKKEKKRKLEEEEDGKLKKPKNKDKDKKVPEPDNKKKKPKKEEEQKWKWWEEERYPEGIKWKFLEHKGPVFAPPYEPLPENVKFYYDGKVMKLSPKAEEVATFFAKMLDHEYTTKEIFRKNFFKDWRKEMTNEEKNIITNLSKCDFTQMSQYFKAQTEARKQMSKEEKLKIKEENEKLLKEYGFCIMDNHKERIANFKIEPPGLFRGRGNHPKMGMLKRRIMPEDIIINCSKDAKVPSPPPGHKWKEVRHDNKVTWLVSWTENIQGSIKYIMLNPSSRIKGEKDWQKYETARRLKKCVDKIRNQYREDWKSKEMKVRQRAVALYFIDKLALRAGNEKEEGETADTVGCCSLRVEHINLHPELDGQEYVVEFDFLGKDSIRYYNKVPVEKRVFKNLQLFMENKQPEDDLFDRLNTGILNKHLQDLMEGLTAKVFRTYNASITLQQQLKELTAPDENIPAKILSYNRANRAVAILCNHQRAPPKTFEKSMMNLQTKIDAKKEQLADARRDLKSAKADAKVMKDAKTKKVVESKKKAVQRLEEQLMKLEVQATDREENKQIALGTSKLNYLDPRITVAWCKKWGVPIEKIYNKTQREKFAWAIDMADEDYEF
UniProt Q92466: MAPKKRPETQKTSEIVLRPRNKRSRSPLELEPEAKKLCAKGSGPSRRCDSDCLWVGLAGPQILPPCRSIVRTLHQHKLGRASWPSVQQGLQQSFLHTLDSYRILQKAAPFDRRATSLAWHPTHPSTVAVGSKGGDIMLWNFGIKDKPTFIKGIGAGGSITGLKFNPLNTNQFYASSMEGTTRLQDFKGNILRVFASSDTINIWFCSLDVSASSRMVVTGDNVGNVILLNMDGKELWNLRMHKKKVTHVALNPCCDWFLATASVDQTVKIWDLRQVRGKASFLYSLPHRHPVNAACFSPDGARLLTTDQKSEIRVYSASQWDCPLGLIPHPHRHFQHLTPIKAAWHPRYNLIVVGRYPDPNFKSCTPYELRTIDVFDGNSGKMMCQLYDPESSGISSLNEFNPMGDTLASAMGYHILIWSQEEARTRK

Target: N-terminally 6×His-tagged TOP1 (topoisomerase I), full length (human) (UniProt P11387)
Assay: affinity purification with mass spectrometry; 6×His-TOP1 transiently expressed in HCT116 cells, TOP1 protein complexes purified by His pull-down, LC-MS/MS; empty vector sample as control

binding: binds
Molecule: DDB2 (from UniProt Q92466 1-427)

binding: binds
B1: DCAF7 (protein, UniProt P61962 1-342)
chain: MSLHGKRKEIYKYEAPWTVYAMNWSVRPDKRFRLALGSFVEEYNNKVQLVGLDEESSEFICRNTFDHPYPTTKLMWIPDTKGVYPDLLATSGDYLRVWRVGETETRLECLLNNNKNSDFCAPLTSFDWNEVDPYLLGTSSIDTTCTIWGLETGQVLGRVNLVSGHVKTQLIAHDKEVYDIAFSRAGGGRDMFASVGADGSVRMFDLRHLEHSTIIYEDPQHHPLLRLCWNKQDPNYLATMAMDGMEVVILDVRVPCTPVARLNNHRACVNGIAWAPHSSCHICTAADDHQALIWDIQQMPRAIEDPILAYTAEGEINNVQWASTQPDWIAICYNNCLEILRV

binding: binds
B2: DCAF13, endogenous (protein, UniProt Q9NV06 1-445)
chain: MKVKMLSRNPDNYVRETKLDLQRVPRNYDPALHPFEVPREYIRALNATKLERVFAKPFLASLDGHRDGVNCLAKHPEKLATVLSGACDGEVRIWNLTQRNCIRTIQAHEGFVRGICTRFCGTSFFTVGDDKTVKQWKMDGPGYGDEEEPLHTILGKTVYTGIDHHWKEAVFATCGQQVDIWDEQRTNPICSMTWGFDSISSVKFNPIETFLLGSCASDRNIVLYDMRQATPLKKVILDMRTNTICWNPMEAFIFTAANEDYNLYTFDMRALDTPVMVHMDHVSAVLDVDYSPTGKEFVSASFDKSIRIFPVDKSRSREVYHTKRMQHVICVKWTSDSKYIMCGSDEMNIRLWKANASEKLGVLTSREKAAKDYNQKLKEKFQHYPHIKRIARHRHLPKSIYSQIQEQRIMKEARRRKEVNRIKHSKPGSVPLVSEKKKHVVAVVK
